This test deals with ALK1-Fc (ALK1 extracellular domain-Fc fusion protein) (UniProt P37023). In words: SPR; Biacore T100; ALK1-Fc (800 RU) or ALK1 monomer (270 RU) amine-coupled to a CM5 chip; ligands injected at 30 μl min^-1 in 0.01 M HEPES pH 7.4, 0.5 M NaCl, 3 mM EDTA, 0.5 mg ml^-1 BSA, 0.01% P20, 25 °C; 1:1 model with mass transport limitations; KD = kd/ka; both purified. (In SPR one partner is held on a chip, and binding of the other changes the refractive index at the surface.)

Sequences of proteins named here, by UniProt entry; tags and fusion partners are left off. Residues count along the entry.
UniProt P37023, residues 22-118: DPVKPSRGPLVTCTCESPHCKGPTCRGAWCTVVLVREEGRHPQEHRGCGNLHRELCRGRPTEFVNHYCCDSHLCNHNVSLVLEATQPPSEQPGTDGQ

No constants are given. Whether binding was seen depends on the method and setting. Some results given as binding are weak or reduced against the parent protein; the word gives no strength.

B1: pro-BMP9 (prodomain-bound BMP9) (complex, UniProt Q9UK05 23-319; Q9UK05 320-429)
chain 1: KPLQSWGRGSAGGNAHSPLGVPGGGLPEHTFNLKMFLENVKVDFLRSLNLSGVPSQDKTRVEPPQYMIDLYNRYTSDKSTTPASNIVRSFSMEDAISITATEDFPFQKHILLFNISIPRHEQITRAELRLYVSCQNHVDPSHDLKGSVVIYDVLDGTDAWDSATETKTFLVSQDIQDEGWETLEVSSAVKRWVRSDSTKSKNKLEVTVESHRKGCDTLDISVPPGSRNLPFFVVFSNDHSSGTKETRLELREMISHEQESVLKKLSKDGSTEAGESSHEEDTDGHVAAGSTLARRKR
chain 2: SAGAGSHCQKTSLRVNFEDIGWDSWIIAPKEYEAYECKGGCFFPLADDVTPTKHAIVQTLVHLKFPTKVGKACCVPTKLSPISVLYKDDMGVPTLKYHYEGMSVAECGCR
Regarding B1, the binding entry is “binds”.
